Measurements: the supplement of paper PMC10849652
The other results are listed elsewhere or left out.

By UniProt entry, the sequences of proteins in these tests, tags left out. Where a name states a change or a piece, a line headed by the entry shows the natural chain unless it says otherwise.
UniProt Q92878: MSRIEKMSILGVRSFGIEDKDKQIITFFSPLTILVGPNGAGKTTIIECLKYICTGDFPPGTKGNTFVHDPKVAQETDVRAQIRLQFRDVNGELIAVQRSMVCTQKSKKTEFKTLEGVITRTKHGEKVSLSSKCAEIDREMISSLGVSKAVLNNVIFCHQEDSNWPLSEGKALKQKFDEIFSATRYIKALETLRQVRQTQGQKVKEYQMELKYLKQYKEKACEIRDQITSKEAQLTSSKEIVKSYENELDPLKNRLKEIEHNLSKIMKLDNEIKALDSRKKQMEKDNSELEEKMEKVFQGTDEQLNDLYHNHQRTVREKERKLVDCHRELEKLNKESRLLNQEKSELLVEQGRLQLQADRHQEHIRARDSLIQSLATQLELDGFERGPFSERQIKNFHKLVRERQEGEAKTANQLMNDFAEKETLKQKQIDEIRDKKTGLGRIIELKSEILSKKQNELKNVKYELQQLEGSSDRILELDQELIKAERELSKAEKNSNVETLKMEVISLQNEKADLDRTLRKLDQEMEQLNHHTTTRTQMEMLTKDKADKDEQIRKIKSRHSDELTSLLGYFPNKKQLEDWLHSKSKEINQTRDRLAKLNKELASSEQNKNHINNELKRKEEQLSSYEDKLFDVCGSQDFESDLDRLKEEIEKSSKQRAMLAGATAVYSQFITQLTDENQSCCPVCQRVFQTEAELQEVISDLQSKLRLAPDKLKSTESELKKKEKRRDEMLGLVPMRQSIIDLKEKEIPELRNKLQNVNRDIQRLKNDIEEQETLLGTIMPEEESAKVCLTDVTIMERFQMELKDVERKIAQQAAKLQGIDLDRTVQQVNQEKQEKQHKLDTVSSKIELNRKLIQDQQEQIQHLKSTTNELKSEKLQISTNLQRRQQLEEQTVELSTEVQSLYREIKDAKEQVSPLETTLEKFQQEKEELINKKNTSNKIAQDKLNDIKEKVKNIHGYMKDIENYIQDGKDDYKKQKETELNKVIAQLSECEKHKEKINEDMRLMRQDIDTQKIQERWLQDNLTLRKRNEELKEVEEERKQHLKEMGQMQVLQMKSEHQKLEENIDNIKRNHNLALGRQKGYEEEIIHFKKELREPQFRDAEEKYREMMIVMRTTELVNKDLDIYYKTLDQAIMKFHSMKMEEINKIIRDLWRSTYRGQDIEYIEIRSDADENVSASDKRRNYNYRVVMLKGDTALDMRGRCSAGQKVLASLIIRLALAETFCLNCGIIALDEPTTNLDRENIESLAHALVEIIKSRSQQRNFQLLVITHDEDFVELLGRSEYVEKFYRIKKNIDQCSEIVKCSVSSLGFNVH
UniProt Q9NS91, whole entry, looked up: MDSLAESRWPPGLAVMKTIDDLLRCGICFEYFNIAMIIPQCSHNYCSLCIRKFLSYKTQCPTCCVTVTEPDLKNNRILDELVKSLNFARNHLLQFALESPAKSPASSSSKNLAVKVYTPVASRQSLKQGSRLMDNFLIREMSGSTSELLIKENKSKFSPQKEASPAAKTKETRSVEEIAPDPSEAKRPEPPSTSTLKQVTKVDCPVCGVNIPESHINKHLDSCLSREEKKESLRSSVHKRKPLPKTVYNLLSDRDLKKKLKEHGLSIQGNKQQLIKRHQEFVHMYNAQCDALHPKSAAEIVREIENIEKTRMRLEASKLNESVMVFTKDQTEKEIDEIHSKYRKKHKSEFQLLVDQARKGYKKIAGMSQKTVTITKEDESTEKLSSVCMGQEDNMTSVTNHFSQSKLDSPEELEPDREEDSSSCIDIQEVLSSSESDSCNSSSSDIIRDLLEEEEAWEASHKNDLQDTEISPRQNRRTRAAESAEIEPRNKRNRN
UniProt P61018: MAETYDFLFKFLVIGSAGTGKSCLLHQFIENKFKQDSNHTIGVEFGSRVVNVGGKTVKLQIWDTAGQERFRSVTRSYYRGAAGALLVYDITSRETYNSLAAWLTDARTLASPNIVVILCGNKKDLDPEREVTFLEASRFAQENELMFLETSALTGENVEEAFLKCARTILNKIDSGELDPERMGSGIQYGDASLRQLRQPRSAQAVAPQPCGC
UniProt Q96I23: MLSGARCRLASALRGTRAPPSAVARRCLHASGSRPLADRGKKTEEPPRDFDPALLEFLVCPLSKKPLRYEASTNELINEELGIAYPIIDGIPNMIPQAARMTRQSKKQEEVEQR
UniProt Q9H2T7: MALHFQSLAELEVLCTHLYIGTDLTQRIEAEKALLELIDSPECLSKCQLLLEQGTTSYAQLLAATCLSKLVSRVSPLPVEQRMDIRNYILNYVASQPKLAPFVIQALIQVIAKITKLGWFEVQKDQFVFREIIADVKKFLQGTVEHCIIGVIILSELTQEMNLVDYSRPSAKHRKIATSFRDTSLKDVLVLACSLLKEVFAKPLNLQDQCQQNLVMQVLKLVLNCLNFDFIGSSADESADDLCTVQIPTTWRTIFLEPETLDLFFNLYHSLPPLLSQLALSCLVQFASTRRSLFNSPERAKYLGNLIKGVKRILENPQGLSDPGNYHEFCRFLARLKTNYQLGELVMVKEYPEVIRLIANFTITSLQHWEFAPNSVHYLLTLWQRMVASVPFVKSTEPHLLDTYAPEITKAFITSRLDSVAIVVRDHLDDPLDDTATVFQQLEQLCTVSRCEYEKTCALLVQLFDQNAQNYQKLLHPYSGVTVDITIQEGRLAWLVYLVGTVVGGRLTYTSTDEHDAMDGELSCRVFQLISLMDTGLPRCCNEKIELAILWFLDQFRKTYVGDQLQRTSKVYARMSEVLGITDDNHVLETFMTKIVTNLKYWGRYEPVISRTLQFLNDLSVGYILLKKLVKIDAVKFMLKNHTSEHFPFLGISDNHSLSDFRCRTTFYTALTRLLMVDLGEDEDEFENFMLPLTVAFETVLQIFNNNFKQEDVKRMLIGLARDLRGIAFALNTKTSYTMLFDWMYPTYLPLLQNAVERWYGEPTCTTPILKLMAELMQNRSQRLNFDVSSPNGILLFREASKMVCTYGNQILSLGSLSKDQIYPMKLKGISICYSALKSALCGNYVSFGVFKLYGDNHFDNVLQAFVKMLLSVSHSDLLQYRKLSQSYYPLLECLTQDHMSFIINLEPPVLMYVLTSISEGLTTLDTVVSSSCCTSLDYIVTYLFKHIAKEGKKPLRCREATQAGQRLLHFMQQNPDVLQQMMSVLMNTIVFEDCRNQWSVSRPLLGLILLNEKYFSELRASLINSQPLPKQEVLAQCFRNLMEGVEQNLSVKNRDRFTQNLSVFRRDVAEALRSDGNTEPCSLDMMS
UniProt Q9BTL3: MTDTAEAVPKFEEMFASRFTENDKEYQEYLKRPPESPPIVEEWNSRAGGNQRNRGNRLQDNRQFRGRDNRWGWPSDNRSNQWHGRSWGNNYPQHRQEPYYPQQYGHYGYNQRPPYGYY
UniProt Q6IQ22: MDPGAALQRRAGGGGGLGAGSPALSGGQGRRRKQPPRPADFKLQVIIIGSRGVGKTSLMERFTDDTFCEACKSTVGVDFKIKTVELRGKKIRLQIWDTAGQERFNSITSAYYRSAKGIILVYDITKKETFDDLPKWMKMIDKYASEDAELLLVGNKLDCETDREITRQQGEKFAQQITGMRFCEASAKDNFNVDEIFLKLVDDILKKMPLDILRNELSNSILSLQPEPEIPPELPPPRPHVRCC
UniProt Q9P0K7: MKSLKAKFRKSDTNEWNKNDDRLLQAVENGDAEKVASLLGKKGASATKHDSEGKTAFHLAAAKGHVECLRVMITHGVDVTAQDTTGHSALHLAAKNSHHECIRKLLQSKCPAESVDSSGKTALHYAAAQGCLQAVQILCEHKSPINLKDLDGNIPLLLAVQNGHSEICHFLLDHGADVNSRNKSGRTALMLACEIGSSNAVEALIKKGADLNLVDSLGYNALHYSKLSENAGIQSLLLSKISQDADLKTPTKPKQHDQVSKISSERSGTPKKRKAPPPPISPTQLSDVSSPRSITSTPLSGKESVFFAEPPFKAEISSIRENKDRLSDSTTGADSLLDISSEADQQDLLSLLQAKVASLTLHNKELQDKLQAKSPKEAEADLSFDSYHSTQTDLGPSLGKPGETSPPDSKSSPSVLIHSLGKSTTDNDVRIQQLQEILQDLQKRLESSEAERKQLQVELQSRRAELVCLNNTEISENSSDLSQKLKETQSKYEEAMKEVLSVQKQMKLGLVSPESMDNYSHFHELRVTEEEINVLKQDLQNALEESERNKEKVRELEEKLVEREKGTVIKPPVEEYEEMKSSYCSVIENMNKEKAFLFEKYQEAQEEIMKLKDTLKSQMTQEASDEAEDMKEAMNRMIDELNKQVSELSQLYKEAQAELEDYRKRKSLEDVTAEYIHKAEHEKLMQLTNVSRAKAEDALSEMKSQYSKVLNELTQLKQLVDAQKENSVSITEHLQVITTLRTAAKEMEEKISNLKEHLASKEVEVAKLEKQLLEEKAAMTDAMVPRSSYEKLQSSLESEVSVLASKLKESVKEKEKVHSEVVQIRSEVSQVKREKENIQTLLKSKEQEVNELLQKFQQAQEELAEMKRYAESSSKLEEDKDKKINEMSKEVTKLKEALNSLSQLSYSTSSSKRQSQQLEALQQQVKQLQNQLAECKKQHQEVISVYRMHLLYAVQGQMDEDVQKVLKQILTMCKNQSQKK
UniProt P32322: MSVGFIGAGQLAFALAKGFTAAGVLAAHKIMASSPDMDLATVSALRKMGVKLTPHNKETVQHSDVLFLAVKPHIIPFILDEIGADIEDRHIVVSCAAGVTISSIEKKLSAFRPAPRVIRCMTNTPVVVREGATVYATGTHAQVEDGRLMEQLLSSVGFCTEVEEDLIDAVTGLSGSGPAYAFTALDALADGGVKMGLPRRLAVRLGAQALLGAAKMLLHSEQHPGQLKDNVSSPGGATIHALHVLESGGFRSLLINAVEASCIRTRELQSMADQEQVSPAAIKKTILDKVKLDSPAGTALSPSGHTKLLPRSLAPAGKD
UniProt Q96S21: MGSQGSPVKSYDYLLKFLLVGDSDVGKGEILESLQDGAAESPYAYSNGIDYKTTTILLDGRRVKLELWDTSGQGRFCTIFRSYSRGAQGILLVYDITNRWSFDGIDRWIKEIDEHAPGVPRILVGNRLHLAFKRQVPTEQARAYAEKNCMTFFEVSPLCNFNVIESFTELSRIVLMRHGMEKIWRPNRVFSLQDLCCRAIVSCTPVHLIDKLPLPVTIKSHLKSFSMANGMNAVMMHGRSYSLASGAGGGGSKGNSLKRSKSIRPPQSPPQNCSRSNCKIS
UniProt Q9H2M9: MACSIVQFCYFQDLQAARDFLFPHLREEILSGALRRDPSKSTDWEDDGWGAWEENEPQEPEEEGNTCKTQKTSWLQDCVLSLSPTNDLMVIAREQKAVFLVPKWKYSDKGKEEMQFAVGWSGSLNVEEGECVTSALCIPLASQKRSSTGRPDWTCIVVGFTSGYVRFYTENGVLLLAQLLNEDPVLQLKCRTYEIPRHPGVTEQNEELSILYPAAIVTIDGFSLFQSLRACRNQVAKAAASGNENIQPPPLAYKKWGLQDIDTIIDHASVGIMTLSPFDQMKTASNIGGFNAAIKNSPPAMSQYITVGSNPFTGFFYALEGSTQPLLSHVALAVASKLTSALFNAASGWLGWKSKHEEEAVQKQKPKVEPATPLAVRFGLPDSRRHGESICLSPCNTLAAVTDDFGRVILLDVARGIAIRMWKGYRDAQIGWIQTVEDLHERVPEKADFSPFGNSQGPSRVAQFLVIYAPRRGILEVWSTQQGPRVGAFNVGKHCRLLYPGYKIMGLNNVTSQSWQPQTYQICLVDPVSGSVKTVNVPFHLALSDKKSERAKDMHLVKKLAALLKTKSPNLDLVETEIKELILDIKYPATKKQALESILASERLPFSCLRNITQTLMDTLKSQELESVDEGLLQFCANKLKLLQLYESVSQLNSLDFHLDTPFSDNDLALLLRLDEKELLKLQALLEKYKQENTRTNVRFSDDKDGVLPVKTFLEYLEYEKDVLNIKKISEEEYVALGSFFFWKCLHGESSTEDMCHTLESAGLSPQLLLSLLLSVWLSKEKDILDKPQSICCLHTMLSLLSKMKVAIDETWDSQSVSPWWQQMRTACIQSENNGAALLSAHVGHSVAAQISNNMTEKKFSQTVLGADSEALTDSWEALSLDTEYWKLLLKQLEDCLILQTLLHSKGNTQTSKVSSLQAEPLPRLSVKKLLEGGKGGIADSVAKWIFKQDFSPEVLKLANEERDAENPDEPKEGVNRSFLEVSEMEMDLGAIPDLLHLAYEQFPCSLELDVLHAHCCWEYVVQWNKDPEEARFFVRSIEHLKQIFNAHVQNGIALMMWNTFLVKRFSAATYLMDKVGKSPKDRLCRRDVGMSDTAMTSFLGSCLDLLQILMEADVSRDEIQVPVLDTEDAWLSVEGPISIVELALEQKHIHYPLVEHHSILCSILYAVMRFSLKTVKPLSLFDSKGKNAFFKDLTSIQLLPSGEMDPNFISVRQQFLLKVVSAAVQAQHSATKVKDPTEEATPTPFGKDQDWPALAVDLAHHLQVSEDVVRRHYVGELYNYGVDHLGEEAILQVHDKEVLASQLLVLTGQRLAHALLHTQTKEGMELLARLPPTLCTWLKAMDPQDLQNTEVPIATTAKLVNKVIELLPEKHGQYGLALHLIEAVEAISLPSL

How the values were obtained:
Assay in all cases: log2 fold change, soluble protein after heating vs DMSO (PISA); higher = thermal stabilisation; K562 lysate, 10 uM; active = over 0.2 and 3.5 SD of the protein, either way, in both replicates (recomputed)
vemurafenib = compound: CCCS(=O)(=O)Nc1ccc(F)c(C(=O)c2c[nH]c3ncc(-c4ccc(Cl)cc4)cc23)c1F [vemurafenib]
Outline: (§1)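 Values give the log-two fold change in thermal stability against solvent controls, from duplicates. Crude K562 extract at 1 mg/mL protein, made by dounce homogenisation in PBS pH 7.4 with 1 mM MgCl2, was treated with 10 μM compound for 30 min. After 3 min heating across 48°C-58°C, aliquots were pooled, adjusted to 0.5% NP-40 at 4°C and centrifuged at 21,000xg for 90 min. The supernatant was measured by TMTpro 16plex LC-MS/MS with channel sums equalised.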

[1] = compound: CCCS(=O)(=O)Nc1ccc(F)c(C(=O)c2c[nH]c3ncc(Cl)cc23)c1F
Outline: as §1

barasertib = compound: CCN(CCCOc1ccc2c(Nc3cc(CC(=O)Nc4cccc(F)c4)[nH]n3)ncnc2c1)CCOP(=O)(O)O [barasertib]
Outline: as §1

[2] = compound: CC[C@@H]1C(=O)N(C)c2cnc(Nc3ccc(C(=O)NC4CCN(C)CC4)cc3OC)nc2N1C1CCCC1
Outline: as §1

volasertib = compound: CC[C@@H]1C(=O)N(C)c2cnc(Nc3ccc(C(=O)N[C@H]4CC[C@H](N5CCN(CC6CC6)CC5)CC4)cc3OC)nc2N1C(C)C [volasertib]
Outline: as §1

[3] = compound: CCn1c(C(=O)N(C2CC2)C2CC2)cc2c3c(ncn3C)c(Nc3cc(C)n(C)n3)nc21
Outline: as §1

[4] = compound: CCn1cc(-c2ccnc3[nH]c(-c4cccc(CN(C)C)c4)cc23)c(-c2ccc(NC(=O)N(C)C)cc2)n1
Outline: as §1

[5] = compound: CN1CCC(CNc2ccc3ncc(-c4cccc(OC(F)(F)F)c4)n3n2)CC1
Outline: as §1

saracatinib = compound: CN1CCN(CCOc2cc(OC3CCOCC3)c3c(Nc4c(Cl)ccc5c4OCO5)ncnc3c2)CC1 [saracatinib]
Outline: as §1

sotrastaurin = compound: CN1CCN(c2nc(C3=C(c4c[nH]c5ccccc45)C(=O)NC3=O)c3ccccc3n2)CC1 [sotrastaurin]
Outline: as §1

Row | Target | log2 fold change (vemurafenib) | log2 fold change [1] | log2 fold change (barasertib) | log2 fold change [2] | log2 fold change (volasertib) | log2 fold change [3] | log2 fold change [4] | log2 fold change [5] | log2 fold change (saracatinib) | log2 fold change (sotrastaurin)
1 | RAN (UniProt P62826) | inactive: -0.021 | inactive: -0.047 | inactive: -0.039 | inactive: 0.033 | inactive: -0.001 | inactive: -0.021 | inactive: 0.07 | inactive: -0.041 | inactive: -0.005 | inactive: -0.016
2 | RAD50 isoform 2 (UniProt Q92878) | inactive: 0.004 | inactive: 0.013 | inactive: 0.025 | inactive: -0.011 | inactive: -0.047 | inactive: 0.039 | inactive: -0.024 | inactive: -0.024 | inactive: 0 | inactive: 0.036
3 | RAD18 (UniProt Q9NS91) | inactive: 0.003 | inactive: -0.028 | inactive: 0.032 | inactive: 0.001 | inactive: -0.014 | inactive: 0.018 | inactive: 0.012 | inactive: -0.024 | inactive: 0.011 | inactive: 0.039
4 | RAB13 (UniProt P51153) | inactive: -0.045 | inactive: -0.114 | inactive: -0.097 | inactive: -0.183 | inactive: 0 | inactive: 0.072 | inactive: 0.01 | inactive: 0.025 | inactive: -0.034 | inactive: 0.09
5 | RAB22A (UniProt Q9UL26) | inactive: 0.018 | inactive: 0.018 | inactive: 0.038 | inactive: 0.041 | inactive: -0.019 | inactive: -0.009 | inactive: -0.025 | inactive: 0.065 | inactive: -0.011 | inactive: 0.047
6 | RAB4B isoform 2 (UniProt P61018) | inactive: -0.031 | inactive: -0.006 | inactive: 0.104 | inactive: -0.037 | inactive: 0.012 | inactive: 0.026 | inactive: -0.033 | inactive: 0.045 | inactive: 0.055 | inactive: 0.044
7 | PYURF (UniProt Q96I23) | inactive: -0.048 | inactive: -0.003 | inactive: -0.049 | inactive: 0.103 | inactive: 0.059 | inactive: 0.042 | inactive: -0.03 | inactive: -0.002 | inactive: -0.013 | inactive: -0.034
8 | RABL3 (UniProt Q5HYI8) | inactive: 0.043 | inactive: 0.024 | inactive: 0.033 | inactive: -0.072 | inactive: -0.045 | inactive: 0.632 | inactive: -0.045 | inactive: -0.032 | inactive: 0.018 | inactive: 0.069
9 | RAB3IL1 (UniProt E9PK89) | inactive: -0.154 | inactive: 0.031 | inactive: -0.001 | inactive: -0.079 | inactive: 0.031 | inactive: -0.054 | inactive: 0.026 | inactive: -0.047 | inactive: -0.043 | inactive: -0.013
10 | QKI (UniProt Q96PU8) | inactive: -0.006 | inactive: 0.024 | inactive: -0.027 | inactive: 0.087 | inactive: -0.021 | inactive: 0.001 | inactive: -0.196 | inactive: 0.107 | inactive: 0.047 | inactive: 0
11 | RAB4A (UniProt P20338) | inactive: -0.043 | inactive: 0.034 | inactive: 0.047 | inactive: -0.009 | inactive: 0.022 | inactive: 0.044 | inactive: 0.116 | inactive: 0.018 | inactive: 0.002 | inactive: 0.002
12 | QPRT (UniProt Q15274) | inactive: 0.024 | inactive: 0.01 | inactive: 0.105 | inactive: 0.024 | inactive: 0.043 | inactive: 0.018 | inactive: -0.03 | inactive: 0 | inactive: -0.012 | inactive: -0.085
13 | RANBP17 (UniProt Q9H2T7) | inactive: 0.108 | inactive: 0.009 | inactive: -0.33 | inactive: -0.123 | inactive: 0.014 | inactive: -0.024 | inactive: -0.034 | inactive: 0.173 | inactive: 0.012 | inactive: 0.116
14 | RAMAC (UniProt Q9BTL3) | inactive: -0.069 | inactive: 0.035 | inactive: -0.05 | inactive: 0.015 | inactive: 0.025 | inactive: 0 | inactive: 0.059 | inactive: -0.02 | inactive: 0.017 | inactive: -0.005
15 | RAB1B (UniProt Q9H0U4) | inactive: -0.003 | inactive: 0.012 | inactive: 0.073 | inactive: 0.019 | inactive: 0.006 | inactive: -0.016 | active: -0.444 | inactive: 0.171 | inactive: 0.021 | inactive: 0.017
16 | RAB7A (UniProt P51149) | inactive: -0.019 | inactive: -0.013 | inactive: -0.015 | inactive: 0.033 | inactive: -0.008 | inactive: -0.002 | inactive: -0.012 | inactive: 0.06 | inactive: -0.011 | inactive: 0.001

Row | Target | log2 fold change (vemurafenib) | log2 fold change [1] | log2 fold change (barasertib) | log2 fold change [2] | log2 fold change (volasertib) | log2 fold change [3] | log2 fold change [4] | log2 fold change [5] | log2 fold change (saracatinib) | log2 fold change (sotrastaurin)
17 | RAB11A (UniProt P62491) | inactive: -0.007 | inactive: 0.105 | inactive: 0.069 | inactive: 0.046 | inactive: -0.057 | inactive: -0.038 | inactive: -0.018 | inactive: -0.113 | inactive: -0.011 | inactive: 0.013
18 | QTRT1 (UniProt Q9BXR0) | inactive: 0.029 | inactive: 0.067 | inactive: -0.028 | inactive: 0.035 | inactive: -0.012 | inactive: -0.048 | inactive: -0.095 | inactive: 0.061 | inactive: 0.025 | inactive: -0.005
19 | RAB11FIP4 (UniProt Q86YS3) | inactive: 0.158 | inactive: 0.13 | inactive: -0.016 | inactive: -0.066 | inactive: -0.078 | inactive: 0.037 | – | – | inactive: 0.025 | –
20 | RAD54L2 (UniProt Q9Y4B4) | inactive: 0.159 | inactive: 0.081 | inactive: -0.032 | inactive: -0.201 | inactive: -0.072 | – | inactive: -0.149 | inactive: 0 | inactive: 0.078 | inactive: -0.061
21 | RAB12 (UniProt Q6IQ22) | inactive: -0.007 | inactive: 0.025 | inactive: -0.002 | inactive: 0.054 | inactive: 0.017 | inactive: -0.003 | inactive: -0.043 | inactive: 0.041 | inactive: -0.017 | inactive: 0.004
22 | RAI14 isoform 2 (UniProt Q9P0K7) | inactive: 0.001 | inactive: 0.066 | inactive: 0.061 | inactive: -0.019 | inactive: 0.005 | inactive: 0 | inactive: 0.045 | inactive: -0.011 | inactive: 0.031 | inactive: 0.026
23 | PYCR1 isoform 3 (UniProt P32322) | inactive: 0.015 | inactive: 0.026 | inactive: -0.003 | inactive: 0.019 | inactive: 0.026 | inactive: 0.012 | inactive: 0.052 | inactive: -0.028 | inactive: -0.022 | inactive: -0.009
24 | RAB40C (UniProt Q96S21) | inactive: 0.061 | inactive: -0.141 | inactive: -0.028 | inactive: 0.122 | inactive: -0.12 | inactive: -0.116 | inactive: -0.049 | inactive: 0.099 | – | inactive: 0.091
25 | RALGAPA1 isoform 6 (UniProt Q6GYQ0) | inactive: -0.008 | inactive: 0.017 | inactive: 0.196 | inactive: 0.02 | inactive: -0.03 | inactive: -0.007 | active: -0.377 | inactive: 0.074 | inactive: 0.049 | inactive: 0.03
26 | RAB6D (UniProt Q53S08) | inactive: 0.005 | inactive: -0.033 | inactive: 0.15 | active: 0.289 | inactive: 0.033 | inactive: -0.049 | inactive: -0.065 | inactive: 0.018 | inactive: -0.053 | inactive: -0.025
27 | PYCR1 (UniProt J3QKT4) | inactive: 0.263 | inactive: 0.068 | inactive: 0.147 | inactive: 0.43 | inactive: 0.004 | inactive: -0.287 | – | – | inactive: 0.251 | inactive: -0.104
28 | PXK (UniProt Q7Z7A4) | inactive: 0.028 | inactive: 0.019 | inactive: 0.042 | inactive: -0.003 | inactive: -0.034 | inactive: 0.022 | inactive: -0.066 | inactive: 0.086 | inactive: -0.03 | inactive: -0.036
29 | QSER1, A0A3B3IRW6 | inactive: -0.042 | inactive: 0.045 | – | inactive: -0.044 | inactive: -0.028 | inactive: 0.043 | – | – | inactive: -0.036 | inactive: -0.014
30 | RAB3GAP2 (UniProt Q9H2M9) | inactive: 0.006 | inactive: 0.019 | inactive: 0.03 | inactive: -0.047 | inactive: -0.051 | inactive: 0.033 | inactive: 0.026 | inactive: -0.084 | inactive: 0.012 | inactive: -0.003
31 | RAB28 (UniProt P51157) | inactive: 0.239 | inactive: -0.297 | inactive: 0.196 | inactive: -0.056 | inactive: -0.135 | inactive: 0.11 | inactive: -0.119 | inactive: 0.038 | inactive: 0.106 | inactive: 0.05

Single records (already shown). Values in the order: log2 fold change (vemurafenib) | log2 fold change [1] | log2 fold change (barasertib) | log2 fold change [2] | log2 fold change (volasertib) | log2 fold change [3] | log2 fold change [4] | log2 fold change [5] | log2 fold change (saracatinib) | log2 fold change (sotrastaurin)
RAB1B (UniProt Q9H0U4) is entered as inactive: -0.003 | inactive: 0.012 | inactive: 0.073 | inactive: 0.019 | inactive: 0.006 | inactive: -0.016 | active: -0.444 | inactive: 0.171 | inactive: 0.021 | inactive: 0.017
RAD54L2 (UniProt Q9Y4B4) is entered as inactive: 0.159 | inactive: 0.081 | inactive: -0.032 | inactive: -0.201 | inactive: -0.072 | – | inactive: -0.149 | inactive: 0 | inactive: 0.078 | inactive: -0.061
